{
  "source": "patent US8381774B2",
  "about": "“Methods for loading a drug eluting medical device” (Medtronic Vascular, Inc., priority 2009, dated 2013)",
  "key": {"[1]": {"assay": "solubilizing capacity of supercritical carbon dioxide (SCCO2) for drug", "assay_type": "physicochemical"}, "[2]": {"assay": "ability of solvents and dispersion mediums to dissolve the therapeutic substance (sirolimus)", "assay_type": "physicochemical", "description": "Solution 524 is a homogeneous mixture in which therapeutic substance 112 dissolves within a solvent or a solvent mixture. In one embodiment, solution 524 includes a high-capacity solvent 528 which is an organic solvent that has a high capacity to dissolve therapeutic substance 112. High capacity as utilized herein is defined as an ability to dissolve therapeutic substance 112 at concentrations greater than 500 mg of substance per milliliter of solvent. Examples of high capacity drug dissolving solvents for sirolimus and similar substances include but are not limited to tetrahydrofuran (THF), di-chloromethane (DCM), chloroform, and di-methyl-sulfoxide (DMSO). In addition to the high-capacity solvent, solution 524 may include an excipient 526 in order to assist in drug elution. In one embodiment, excipient 526 may be a surfactant such as but not limited to sorbitan fatty acid esters such as sorbitan monooleate and sorbitan monolaurate, polysorbates such as polysorbate 20, polysorbate 60, and polysorbate 80, cyclodextrins such as 2-hydroxypropyl-beta-cyclodextrin and 2,6-di-O-methyl-beta-cyclodextrin, sodium dodecyl sulfate, octyl glucoside, and low molecular weight poly(ethylene glycol)s. In another embodiment, excipient 526 may be a hydrophilic agent such as but not limited to salts such as sodium chloride and other materials such as urea, citric acid, and ascorbic acid. […]"}},
  "note": "For part of these data: At least one read-out could not be matched to a standard name with certainty. For part of these data: At least one compound was matched to its structure with a doubt left.",
  "data": [
    {"smiles": "CO[C@H]1C[C@@H]2CC[C@@H](C)[C@@](O)(O2)C(=O)C(=O)N2CCCC[C@H]2C(=O)O[C@H]([C@H](C)C[C@@H]2CC[C@@H](O)[C@H](OC)C2)CC(=O)[C@H](C)/C=C(\\C)[C@@H](O)[C@@H](OC)C(=O)[C@H](C)C[C@H](C)/C=C/C=C/C=C/1C", "note": "[sirolimus]", "values": [
      {"measurement": "capacity of SCCO2 for solubilizing the drug", "setting": "[1]", "value": "low capacity"},
      {"measurement": "capacity of solvent to dissolve the drug", "setting": "[2]; solvents: methanol, ethanol, propanol, acetonitrile, ethyl lactate, acetone, tetrahydrafuran/water (9:1 weight ratio)", "value": "low capacity (ability to dissolve therapeutic substance 112 at concentrations typically below 500 mg of drug per milliliter solvent)"},
      {"measurement": "capacity of solvent to dissolve the drug", "setting": "[2]; solvents: tetrahydrofuran (THF), di-chloromethane (DCM), chloroform, di-methyl-sulfoxide (DMSO)", "value": "high capacity (ability to dissolve therapeutic substance 112 at concentrations greater than 500 mg of substance per milliliter of solvent)"}
    ]}
  ]
}
